Test results reported in the supplement of paper PMC6411743.
± gives the standard deviation of the averaged measurements. This is one part of the list.

By UniProt entry, the sequences of proteins in these tests, tags left out. Where a name states a change or a piece, a line headed by the entry shows the natural chain unless it says otherwise.
UniProt Q8IY67: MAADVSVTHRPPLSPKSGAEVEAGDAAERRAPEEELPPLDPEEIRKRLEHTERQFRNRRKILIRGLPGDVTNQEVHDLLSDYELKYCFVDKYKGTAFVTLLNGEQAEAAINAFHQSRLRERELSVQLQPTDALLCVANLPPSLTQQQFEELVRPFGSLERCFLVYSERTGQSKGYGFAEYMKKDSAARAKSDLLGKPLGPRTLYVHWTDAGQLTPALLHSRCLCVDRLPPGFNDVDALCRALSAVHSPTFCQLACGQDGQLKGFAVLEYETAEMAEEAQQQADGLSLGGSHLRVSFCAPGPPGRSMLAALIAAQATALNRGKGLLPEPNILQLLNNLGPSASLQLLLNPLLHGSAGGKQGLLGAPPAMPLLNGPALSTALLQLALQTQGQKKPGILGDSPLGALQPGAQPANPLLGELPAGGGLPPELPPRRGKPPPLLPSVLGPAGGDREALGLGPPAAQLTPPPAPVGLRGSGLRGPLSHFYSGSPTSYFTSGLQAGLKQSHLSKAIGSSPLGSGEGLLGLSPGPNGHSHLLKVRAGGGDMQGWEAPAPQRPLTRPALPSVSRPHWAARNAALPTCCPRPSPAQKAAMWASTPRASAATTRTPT
UniProt Q9NYB9: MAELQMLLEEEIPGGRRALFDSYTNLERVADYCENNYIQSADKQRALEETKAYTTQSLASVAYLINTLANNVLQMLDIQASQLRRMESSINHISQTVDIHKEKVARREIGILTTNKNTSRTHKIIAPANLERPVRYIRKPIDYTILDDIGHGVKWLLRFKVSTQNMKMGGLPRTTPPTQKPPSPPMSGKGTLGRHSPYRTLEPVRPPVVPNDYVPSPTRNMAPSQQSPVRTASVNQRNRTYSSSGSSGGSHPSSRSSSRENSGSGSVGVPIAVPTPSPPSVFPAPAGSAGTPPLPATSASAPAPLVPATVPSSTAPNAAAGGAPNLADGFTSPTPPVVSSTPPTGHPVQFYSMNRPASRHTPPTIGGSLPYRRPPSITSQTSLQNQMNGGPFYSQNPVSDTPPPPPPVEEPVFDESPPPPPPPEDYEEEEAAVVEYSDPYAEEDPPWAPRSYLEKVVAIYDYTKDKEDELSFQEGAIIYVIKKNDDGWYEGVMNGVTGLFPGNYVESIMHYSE
UniProt Q9UHJ6: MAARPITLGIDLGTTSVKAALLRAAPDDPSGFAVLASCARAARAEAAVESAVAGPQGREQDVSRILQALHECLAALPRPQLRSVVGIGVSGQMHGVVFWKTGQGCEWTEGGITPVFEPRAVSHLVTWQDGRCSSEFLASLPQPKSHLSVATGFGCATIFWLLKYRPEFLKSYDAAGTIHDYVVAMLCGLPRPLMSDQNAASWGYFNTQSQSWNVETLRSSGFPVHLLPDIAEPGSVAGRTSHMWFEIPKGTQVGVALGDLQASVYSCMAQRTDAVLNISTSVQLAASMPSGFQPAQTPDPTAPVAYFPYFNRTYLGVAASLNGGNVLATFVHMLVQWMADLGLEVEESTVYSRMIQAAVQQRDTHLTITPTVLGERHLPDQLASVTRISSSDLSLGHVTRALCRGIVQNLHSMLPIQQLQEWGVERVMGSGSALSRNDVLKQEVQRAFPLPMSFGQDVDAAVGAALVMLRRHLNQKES
UniProt Q5VU43: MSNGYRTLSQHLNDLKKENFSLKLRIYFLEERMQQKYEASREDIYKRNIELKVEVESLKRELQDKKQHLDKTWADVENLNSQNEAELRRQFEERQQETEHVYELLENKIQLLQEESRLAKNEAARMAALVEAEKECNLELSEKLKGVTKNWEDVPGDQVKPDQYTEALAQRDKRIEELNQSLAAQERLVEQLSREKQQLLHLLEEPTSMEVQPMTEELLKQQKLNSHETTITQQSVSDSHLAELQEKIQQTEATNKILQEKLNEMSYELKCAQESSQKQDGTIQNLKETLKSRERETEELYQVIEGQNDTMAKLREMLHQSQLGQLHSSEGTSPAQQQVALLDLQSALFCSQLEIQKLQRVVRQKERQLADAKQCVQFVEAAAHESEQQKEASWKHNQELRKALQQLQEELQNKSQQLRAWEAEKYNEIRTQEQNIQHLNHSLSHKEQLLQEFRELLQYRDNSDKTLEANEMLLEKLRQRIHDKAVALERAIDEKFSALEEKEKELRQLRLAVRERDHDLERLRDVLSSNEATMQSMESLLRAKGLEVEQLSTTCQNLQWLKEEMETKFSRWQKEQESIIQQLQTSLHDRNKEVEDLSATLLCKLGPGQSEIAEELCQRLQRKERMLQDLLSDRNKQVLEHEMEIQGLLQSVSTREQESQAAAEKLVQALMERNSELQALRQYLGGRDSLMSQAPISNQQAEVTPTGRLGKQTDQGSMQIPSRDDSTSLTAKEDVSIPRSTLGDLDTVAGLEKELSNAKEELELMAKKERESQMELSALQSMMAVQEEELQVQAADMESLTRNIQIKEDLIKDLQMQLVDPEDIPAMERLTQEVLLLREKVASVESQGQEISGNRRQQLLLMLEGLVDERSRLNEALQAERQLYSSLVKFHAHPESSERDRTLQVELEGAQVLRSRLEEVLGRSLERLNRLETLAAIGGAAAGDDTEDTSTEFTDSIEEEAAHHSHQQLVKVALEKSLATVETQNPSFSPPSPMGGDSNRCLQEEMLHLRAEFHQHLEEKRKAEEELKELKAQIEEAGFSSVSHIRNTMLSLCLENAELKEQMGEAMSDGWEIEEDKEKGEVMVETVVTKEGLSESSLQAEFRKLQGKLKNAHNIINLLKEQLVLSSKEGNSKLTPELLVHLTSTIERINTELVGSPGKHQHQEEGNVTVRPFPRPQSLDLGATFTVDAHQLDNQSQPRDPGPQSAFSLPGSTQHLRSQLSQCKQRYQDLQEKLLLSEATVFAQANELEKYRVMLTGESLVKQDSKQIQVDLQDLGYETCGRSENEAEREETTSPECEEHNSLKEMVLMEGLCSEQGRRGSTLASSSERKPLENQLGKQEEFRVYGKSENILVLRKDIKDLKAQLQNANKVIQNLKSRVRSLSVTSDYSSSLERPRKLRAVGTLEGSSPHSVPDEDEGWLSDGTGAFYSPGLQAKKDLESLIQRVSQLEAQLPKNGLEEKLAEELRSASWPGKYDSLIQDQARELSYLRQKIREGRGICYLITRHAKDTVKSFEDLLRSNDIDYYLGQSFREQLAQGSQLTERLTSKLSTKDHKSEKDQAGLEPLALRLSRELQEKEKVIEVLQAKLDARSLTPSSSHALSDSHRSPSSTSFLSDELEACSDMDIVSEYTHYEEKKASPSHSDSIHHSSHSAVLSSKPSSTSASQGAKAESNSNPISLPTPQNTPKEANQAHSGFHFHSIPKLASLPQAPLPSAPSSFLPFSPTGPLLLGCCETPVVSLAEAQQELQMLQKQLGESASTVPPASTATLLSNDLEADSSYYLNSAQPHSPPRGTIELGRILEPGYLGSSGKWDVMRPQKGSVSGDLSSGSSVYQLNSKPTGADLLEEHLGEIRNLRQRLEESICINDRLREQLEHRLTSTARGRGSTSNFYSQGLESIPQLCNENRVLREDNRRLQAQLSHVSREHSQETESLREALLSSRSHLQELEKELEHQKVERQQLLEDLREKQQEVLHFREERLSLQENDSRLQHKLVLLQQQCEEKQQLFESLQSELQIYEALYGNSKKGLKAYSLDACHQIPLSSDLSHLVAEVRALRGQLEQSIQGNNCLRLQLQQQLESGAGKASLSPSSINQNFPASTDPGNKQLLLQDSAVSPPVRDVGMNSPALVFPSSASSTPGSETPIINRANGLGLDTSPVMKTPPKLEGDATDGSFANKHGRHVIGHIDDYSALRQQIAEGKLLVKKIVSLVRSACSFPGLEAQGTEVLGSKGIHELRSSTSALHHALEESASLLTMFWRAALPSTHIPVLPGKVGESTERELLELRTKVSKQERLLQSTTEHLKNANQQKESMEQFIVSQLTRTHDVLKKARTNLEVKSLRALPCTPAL

Compound: Nc1nc2c(ncn2[C@@H]2O[C@H](COP(=O)(O)OP(=O)(O)OP(=O)(O)O)[C@@H](O)[C@H]2O)c(=O)[nH]1 [guanosine triphosphate]
Test: NP40-soluble protein abundance relative to vehicle (solubility fold change) (ratio); higher = more soluble protein in presence of GTP
Protocol: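 Solubility proteome profiling in Jurkat crude lysate. Lysate was treated with Mg-GTP (0.1-10 mM) for 10 min at room temperature and 3 min at 37 °C, then solubilised with 0.8% NP40 and benzonase, followed by ultracentrifugation. Proteins were quantified by TMT10 LC-MS/MS; the value is the NP40-soluble abundance relative to the NP40-processed vehicle, from 3 independent experiments.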

Target	NP40-soluble protein abundance (concentration: 0.1mM)	NP40-soluble protein abundance (concentration: 0.5mM)	NP40-soluble protein abundance (concentration: 1mM)	NP40-soluble protein abundance (concentration: 2mM)	NP40-soluble protein abundance (concentration: 4mM)	NP40-soluble protein abundance (concentration: 6mM)	NP40-soluble protein abundance (concentration: 8mM)	NP40-soluble protein abundance (concentration: 10mM)
A0A087WZ13|E9PAU2 (UniProt Q8IY67)	0.994 ± 0.017	0.942 ± 0.03	0.962 ± 0.021	0.96 ± 0.031	0.98 ± 0.021	0.948 ± 0.041	0.942 ± 0.014	0.971 ± 0.037
A0A0C4DG21|B7Z836 and related entries (UniProt Q9NYB9)	0.932 ± 0.033	0.925 ± 0.037	1 ± 0.024	1 ± 0.067	0.971 ± 0.042	1.01 ± 0.046	1.01 ± 0.032	1.06 ± 0.086
A0A0A0MRF6|Q99996 and related entries (UniProt Q99996)	1.03 ± 0.014	1.05 ± 0.017	1.08 ± 0.049	1.1 ± 0.056	1.15 ± 0.09	1.14 ± 0.095	1.18 ± 0.14	1.12 ± 0.13
A0A0B4J2A0|Q9UHJ6 (UniProt Q9UHJ6)	1.03 ± 0.098	0.985 ± 0.08	0.981 ± 0.086	0.981 ± 0.083	0.978 ± 0.085	0.964 ± 0.045	0.944 ± 0.067	0.924 ± 0.1
A0A0C4DFQ0|E9PL24 and related entries (UniProt Q5VU43)	1.05 ± 0.072	1.02 ± 0.028	1.01 ± 0.032	1.05 ± 0.042	0.991 ± 0.081	1.02 ± 0.079	1.04 ± 0.11	1.03 ± 0.11
